Here are results for 12 molecules from publication PMC9266683.

Sequences of proteins named here, by UniProt entry; tags and fusion partners are left off.
UniProt O48686: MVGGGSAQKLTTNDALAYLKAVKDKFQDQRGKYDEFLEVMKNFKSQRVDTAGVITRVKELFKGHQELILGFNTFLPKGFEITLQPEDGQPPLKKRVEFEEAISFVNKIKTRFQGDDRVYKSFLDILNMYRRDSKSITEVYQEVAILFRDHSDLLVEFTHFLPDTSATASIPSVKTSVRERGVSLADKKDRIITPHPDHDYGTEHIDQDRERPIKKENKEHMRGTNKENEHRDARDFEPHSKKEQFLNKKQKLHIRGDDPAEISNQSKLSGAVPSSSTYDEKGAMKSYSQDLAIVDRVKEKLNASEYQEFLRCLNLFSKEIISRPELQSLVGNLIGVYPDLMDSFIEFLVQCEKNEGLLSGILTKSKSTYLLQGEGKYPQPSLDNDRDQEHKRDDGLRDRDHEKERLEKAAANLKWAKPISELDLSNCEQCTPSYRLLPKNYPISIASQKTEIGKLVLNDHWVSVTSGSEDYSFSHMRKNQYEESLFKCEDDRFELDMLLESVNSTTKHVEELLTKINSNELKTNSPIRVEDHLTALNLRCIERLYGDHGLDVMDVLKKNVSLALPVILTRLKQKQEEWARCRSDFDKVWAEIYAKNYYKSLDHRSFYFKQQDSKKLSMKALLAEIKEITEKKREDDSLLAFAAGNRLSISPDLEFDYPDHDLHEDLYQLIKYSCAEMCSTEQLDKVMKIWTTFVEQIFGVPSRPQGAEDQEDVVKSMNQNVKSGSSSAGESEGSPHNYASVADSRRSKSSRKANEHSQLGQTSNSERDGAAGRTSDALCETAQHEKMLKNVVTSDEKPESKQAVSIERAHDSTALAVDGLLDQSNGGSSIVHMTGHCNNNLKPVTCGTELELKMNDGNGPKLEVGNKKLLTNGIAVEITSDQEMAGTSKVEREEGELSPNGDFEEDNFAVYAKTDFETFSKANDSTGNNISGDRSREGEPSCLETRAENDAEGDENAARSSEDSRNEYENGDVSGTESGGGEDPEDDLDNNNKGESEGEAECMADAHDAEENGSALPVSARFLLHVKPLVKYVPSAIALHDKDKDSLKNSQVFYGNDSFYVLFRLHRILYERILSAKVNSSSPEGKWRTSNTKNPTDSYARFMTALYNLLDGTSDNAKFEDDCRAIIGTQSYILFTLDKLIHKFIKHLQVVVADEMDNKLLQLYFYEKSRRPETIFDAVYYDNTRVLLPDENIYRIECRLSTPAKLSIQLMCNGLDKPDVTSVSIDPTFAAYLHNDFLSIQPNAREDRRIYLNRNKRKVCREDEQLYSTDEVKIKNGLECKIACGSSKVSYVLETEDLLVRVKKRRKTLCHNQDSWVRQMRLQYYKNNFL
UniProt Q9XIE1: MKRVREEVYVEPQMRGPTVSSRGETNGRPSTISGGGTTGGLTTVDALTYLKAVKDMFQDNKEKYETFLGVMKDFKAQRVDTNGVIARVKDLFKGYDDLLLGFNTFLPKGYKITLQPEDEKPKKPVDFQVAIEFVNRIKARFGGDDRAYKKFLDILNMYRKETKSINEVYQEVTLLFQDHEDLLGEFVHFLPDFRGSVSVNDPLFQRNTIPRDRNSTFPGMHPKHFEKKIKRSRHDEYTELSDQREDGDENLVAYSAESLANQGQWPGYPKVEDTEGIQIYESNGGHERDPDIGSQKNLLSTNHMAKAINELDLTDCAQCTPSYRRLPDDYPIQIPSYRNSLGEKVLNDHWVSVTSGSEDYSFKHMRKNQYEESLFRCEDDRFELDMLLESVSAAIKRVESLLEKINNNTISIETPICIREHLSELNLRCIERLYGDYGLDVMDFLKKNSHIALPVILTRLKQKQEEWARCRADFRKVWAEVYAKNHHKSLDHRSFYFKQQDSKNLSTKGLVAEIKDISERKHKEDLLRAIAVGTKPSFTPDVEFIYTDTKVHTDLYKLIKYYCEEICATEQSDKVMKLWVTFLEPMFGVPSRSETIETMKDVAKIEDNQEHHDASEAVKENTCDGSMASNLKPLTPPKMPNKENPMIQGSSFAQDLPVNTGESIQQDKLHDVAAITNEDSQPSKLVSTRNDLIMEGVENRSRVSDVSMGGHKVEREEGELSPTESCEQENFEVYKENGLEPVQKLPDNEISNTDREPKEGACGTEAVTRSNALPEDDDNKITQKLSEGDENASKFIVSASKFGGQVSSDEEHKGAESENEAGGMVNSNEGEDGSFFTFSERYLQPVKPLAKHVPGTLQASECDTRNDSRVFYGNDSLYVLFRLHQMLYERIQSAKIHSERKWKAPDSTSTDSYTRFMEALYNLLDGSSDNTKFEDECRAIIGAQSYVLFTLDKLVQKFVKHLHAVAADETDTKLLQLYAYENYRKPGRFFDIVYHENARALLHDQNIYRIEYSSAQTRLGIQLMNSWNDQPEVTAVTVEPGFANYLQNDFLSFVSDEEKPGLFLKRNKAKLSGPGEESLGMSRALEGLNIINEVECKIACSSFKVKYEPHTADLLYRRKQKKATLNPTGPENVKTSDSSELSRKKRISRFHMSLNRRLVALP
UniProt O04539: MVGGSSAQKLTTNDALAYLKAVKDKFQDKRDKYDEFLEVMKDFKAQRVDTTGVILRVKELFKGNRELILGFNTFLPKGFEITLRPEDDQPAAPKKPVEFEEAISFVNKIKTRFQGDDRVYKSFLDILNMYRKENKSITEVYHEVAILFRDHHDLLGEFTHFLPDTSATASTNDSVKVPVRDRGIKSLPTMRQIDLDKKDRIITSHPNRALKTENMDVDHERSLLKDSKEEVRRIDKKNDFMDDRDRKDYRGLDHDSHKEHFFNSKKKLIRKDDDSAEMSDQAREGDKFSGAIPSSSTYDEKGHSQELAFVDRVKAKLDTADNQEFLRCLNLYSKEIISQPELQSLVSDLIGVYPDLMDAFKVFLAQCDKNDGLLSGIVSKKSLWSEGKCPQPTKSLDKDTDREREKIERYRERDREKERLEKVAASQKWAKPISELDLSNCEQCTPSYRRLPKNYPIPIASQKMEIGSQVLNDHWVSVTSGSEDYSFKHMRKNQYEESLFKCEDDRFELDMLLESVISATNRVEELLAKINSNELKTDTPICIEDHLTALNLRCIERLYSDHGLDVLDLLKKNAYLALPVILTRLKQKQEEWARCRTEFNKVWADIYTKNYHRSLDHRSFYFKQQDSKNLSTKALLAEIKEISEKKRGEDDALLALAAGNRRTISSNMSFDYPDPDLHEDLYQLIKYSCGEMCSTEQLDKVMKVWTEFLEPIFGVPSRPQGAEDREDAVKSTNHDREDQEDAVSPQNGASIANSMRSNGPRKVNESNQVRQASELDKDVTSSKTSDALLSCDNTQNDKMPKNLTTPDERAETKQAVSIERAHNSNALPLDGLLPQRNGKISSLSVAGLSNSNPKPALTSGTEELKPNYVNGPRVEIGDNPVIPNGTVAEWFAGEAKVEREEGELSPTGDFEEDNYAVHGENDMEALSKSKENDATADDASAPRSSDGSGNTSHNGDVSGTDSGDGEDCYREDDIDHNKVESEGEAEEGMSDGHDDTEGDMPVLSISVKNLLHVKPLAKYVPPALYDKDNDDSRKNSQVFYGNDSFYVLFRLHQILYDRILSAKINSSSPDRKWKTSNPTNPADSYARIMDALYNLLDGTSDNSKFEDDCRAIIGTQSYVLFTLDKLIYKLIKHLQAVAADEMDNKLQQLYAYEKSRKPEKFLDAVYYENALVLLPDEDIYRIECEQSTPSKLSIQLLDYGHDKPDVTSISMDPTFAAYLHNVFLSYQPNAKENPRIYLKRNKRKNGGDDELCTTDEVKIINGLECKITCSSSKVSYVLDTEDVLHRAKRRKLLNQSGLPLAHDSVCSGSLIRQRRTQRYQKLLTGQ
UniProt Q9XIK6: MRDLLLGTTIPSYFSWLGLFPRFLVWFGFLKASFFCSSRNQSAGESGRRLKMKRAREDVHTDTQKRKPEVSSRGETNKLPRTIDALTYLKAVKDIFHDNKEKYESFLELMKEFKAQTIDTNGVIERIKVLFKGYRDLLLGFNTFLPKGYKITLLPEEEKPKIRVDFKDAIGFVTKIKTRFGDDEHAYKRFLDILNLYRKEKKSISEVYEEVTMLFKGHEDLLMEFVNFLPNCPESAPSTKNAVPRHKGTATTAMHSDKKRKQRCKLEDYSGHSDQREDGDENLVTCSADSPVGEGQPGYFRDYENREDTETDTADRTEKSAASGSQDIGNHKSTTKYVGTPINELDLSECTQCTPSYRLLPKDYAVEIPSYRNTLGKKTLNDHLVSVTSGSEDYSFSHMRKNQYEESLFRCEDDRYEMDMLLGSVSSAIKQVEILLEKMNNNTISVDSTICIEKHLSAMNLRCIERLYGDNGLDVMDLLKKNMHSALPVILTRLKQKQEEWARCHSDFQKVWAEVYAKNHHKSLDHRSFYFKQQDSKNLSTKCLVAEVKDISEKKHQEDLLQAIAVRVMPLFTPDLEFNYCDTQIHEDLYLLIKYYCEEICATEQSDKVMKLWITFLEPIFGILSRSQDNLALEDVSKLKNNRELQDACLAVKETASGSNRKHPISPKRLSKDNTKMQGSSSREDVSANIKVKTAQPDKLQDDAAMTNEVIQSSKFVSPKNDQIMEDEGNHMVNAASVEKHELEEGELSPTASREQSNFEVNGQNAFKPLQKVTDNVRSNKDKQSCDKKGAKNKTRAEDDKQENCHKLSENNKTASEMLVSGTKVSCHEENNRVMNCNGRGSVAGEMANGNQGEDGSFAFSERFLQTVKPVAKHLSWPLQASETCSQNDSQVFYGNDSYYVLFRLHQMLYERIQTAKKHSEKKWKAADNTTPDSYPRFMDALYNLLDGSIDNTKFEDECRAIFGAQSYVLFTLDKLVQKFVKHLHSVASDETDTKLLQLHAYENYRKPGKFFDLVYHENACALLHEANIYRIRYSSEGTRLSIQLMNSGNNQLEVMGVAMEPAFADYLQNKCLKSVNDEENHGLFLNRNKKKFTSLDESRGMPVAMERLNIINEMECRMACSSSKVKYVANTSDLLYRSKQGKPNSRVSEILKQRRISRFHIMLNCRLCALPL

These are yes or no findings as the source states them, for the method shown. For part of these data: In cells and extracts the contact can be indirect. Some binding calls cover weakened binding; strength is not graded here. Sequences can lack the tags named with a protein.

First the molecules themselves.
B1: VAL1-B3.CW (aa 208–673), fused to the GAL4 activating domain (domain or fragment, UniProt Q8W4L5 208-673)
chain: EAVEGMKHISPSQSNMVHCSASNILQKPSRPAISTPPVASKSAQARIGRPPVEGRGRGHLLPRYWPKYTDKEVQQISGNLNLNIVPLFEKTLSASDAGRIGRLVLPKACAEAYFPPISQSEGIPLKIQDVRGREWTFQFRYWPNNNSRMYVLEGVTPCIQSMMLQAGDTVTFSRVDPGGKLIMGSRKAANAGDMQGCGLTNGTSTEDTSSSGVTENPPSINGSSCISLIPKELNGMPENLNSETNGGRIGDDPTRVKEKKRTRTIGAKNKRLLLHSEESMELRLTWEEAQDLLRPSPSVKPTIVVIEEQEIEEYDEPPVFGKRTIVTTKPSGEQERWATCDDCSKWRRLPVDALLSFKWTCIDNVWDVSRCSCSAPEESLKELENVLKVGREHKKRRTGESQAAKSQQEPCGLDALASAAVLGDTIGEPEVATTTRHPRHRAGCSCIVCIQPPSGKGRHKPTCGCT
B2: VAL1-B3 (aa 208–457), fused to the GAL4 activating domain (domain or fragment, UniProt Q8W4L5 208-457)
chain: EAVEGMKHISPSQSNMVHCSASNILQKPSRPAISTPPVASKSAQARIGRPPVEGRGRGHLLPRYWPKYTDKEVQQISGNLNLNIVPLFEKTLSASDAGRIGRLVLPKACAEAYFPPISQSEGIPLKIQDVRGREWTFQFRYWPNNNSRMYVLEGVTPCIQSMMLQAGDTVTFSRVDPGGKLIMGSRKAANAGDMQGCGLTNGTSTEDTSSSGVTENPPSINGSSCISLIPKELNGMPENLNSETNGGRIG
B3: VAL1-PHD.B3 (aa 1–457), fused to the GAL4 activating domain (domain or fragment, UniProt Q8W4L5 1-457)
chain: MFEVKMGSKMCMNASCGTTSTVEWKKGWPLRSGLLADLCYRCGSAYESSLFCEQFHKDQSGWRECYLCSKRLHCGCIASKVTIELMDYGGVGCSTCACCHQLNLNTRGENPGVFSRLPMKTLADRQHVNGESGGRNEGDLFSQPLVMGGDKREEFMPHRGFGKLMSPESTTTGHRLDAAGEMHESSPLQPSLNMGLAVNPFSPSFATEAVEGMKHISPSQSNMVHCSASNILQKPSRPAISTPPVASKSAQARIGRPPVEGRGRGHLLPRYWPKYTDKEVQQISGNLNLNIVPLFEKTLSASDAGRIGRLVLPKACAEAYFPPISQSEGIPLKIQDVRGREWTFQFRYWPNNNSRMYVLEGVTPCIQSMMLQAGDTVTFSRVDPGGKLIMGSRKAANAGDMQGCGLTNGTSTEDTSSSGVTENPPSINGSSCISLIPKELNGMPENLNSETNGGRIG
B4: VAL1-CW.EAR (aa 458–790), fused to the GAL4 activating domain (domain or fragment, UniProt Q8W4L5 458-790)
chain: DDPTRVKEKKRTRTIGAKNKRLLLHSEESMELRLTWEEAQDLLRPSPSVKPTIVVIEEQEIEEYDEPPVFGKRTIVTTKPSGEQERWATCDDCSKWRRLPVDALLSFKWTCIDNVWDVSRCSCSAPEESLKELENVLKVGREHKKRRTGESQAAKSQQEPCGLDALASAAVLGDTIGEPEVATTTRHPRHRAGCSCIVCIQPPSGKGRHKPTCGCTVCSTVKRRFKTLMMRRKKKQLERDVTAAEDKKKKDMELAESDKSKEEKEVNTARIDLNSDPYNKEDVEAVAVEKEESRKRAIGQCSGVVAQDASDVLGVTELEGEGKNVREEPRVSS
B5: VAL1-EAR (aa 674–790), fused to the GAL4 activating domain (domain or fragment, UniProt Q8W4L5 674-790)
chain: VCSTVKRRFKTLMMRRKKKQLERDVTAAEDKKKKDMELAESDKSKEEKEVNTARIDLNSDPYNKEDVEAVAVEKEESRKRAIGQCSGVVAQDASDVLGVTELEGEGKNVREEPRVSS
B6: VAL1-PHD (aa 1–207), fused to the GAL4 activating domain (domain or fragment, UniProt Q8W4L5 1-207)
chain: MFEVKMGSKMCMNASCGTTSTVEWKKGWPLRSGLLADLCYRCGSAYESSLFCEQFHKDQSGWRECYLCSKRLHCGCIASKVTIELMDYGGVGCSTCACCHQLNLNTRGENPGVFSRLPMKTLADRQHVNGESGGRNEGDLFSQPLVMGGDKREEFMPHRGFGKLMSPESTTTGHRLDAAGEMHESSPLQPSLNMGLAVNPFSPSFAT
B7: His-SNL2, full length (protein, UniProt Q9LFQ3 1-1367)
chain: MKRIRDDIYATGSQFKRPLGSSRGESYEQSPITGGGSIGEGGINTQKLTTDDALTYLKEVKEMFQDQRDKYDMFLEVMKDFKAQKTDTSGVISRVKELFKGHNNLIFGFNTFLPKGFEITLDDVEAPSKKTVEFEEAISFVNKIKTRFQHNELVYKSFLEILNMYRKDNKDITEVYNEVSTLFEDHSDLLEEFTRFLPDSLAPHTEAQLLRSQAQRYDDRGSGPPLVRRMFMEKDRRRERTVASRGDRDHSVDRSDLNDDKSMVKMHRDQRKRVDKDNRERRSRDLEDGEAEQDNLQHFSEKRKSSRRMEGFEAYSGPASHSEKNNLKSMYNQAFLFCEKVKERLCSQDDYQAFLKCLNMFSNGIIQRKDLQNLVSDVLGKFPDLMDEFNQFFERCESIDGFQHLAGVMSKKSLGSEENLSRSVKGEEKDREHKRDVEAAKEKERSKDKYMGKSIQELDLSDCERCTPSYRLLPPDYPIPSVRHRQKSGAAVLNDHWVSVTSGSEDYSFKHMRRNQYEESLFRCEDDRFELDMLLESVGSAAKSAEELLNIIIDKKISFEGSFRIEDHFTALNLRCIERLYGDHGLDVTDLIRKNPAAALPVILTRLKQKQDEWTKCREGFNVVWADVYAKNHYKSLDHRSFYFKQQDSKNLSAKALVSEVKDLKEKSQKEDDVVLSISAGYRQPIIPHLEYDYLDRAIHEDLFKLVQFSCEEICSTKEQTGKVLKLWANFLELMLDVAPRAKGSDSVEDVVETQHQRAFTSGEANESSDAISLVSRQLKFATNGDVHASSGVSKHGETGLLNRDSSGKENLKDGDLANKDVATCAEKPQKDQEIGNGAAKRSGDVDERVATSSSSFPSGVENNNGKVGSRDSSGSRGILSKPSEAIDKVDSIQHTQGVDIGRIIVLGNGLQSDTSKANSNYDESGGPSKIEKEEGELSPVGDSEDNFVVYEDRELKATAKTEHSVEAEGENDEDADDEDGDDASEAGEDASGTESIGDECSQDDNGVEEEGEHDEIDGKAESEGEAEGMESHLIEDKGLFPSSERVLLSVKPLSKHIAAAALVDEKKKDSRVFYGNDDFYVLFRLHRVSAIDSYDLLSHILYERILSAKTYCSGSEMKLRNTKDTCSPDPYARFMNALFSLLNGSAENSKFEDECRAIIGNQSYVLFTLEKLIYKLVKQLQAVVADDMDNKLLQLYEYENSRRPGRVFDSVYYENARILLHEENIYRLECSSSPSRLSIQLMDNIIEKPDAYAVSMEPTFTSYLQNEFLSNSSGKKELQDIVLQRNMRGYNGLDDLAVACKAMEGVQVINGLECKMSCSSYKISYVLDTEDFFHRKKKQKKSNNLSLAKLSQNRIARFHKFLSASR
B8: His-SNL1, full length (protein, UniProt Q9SRH9 1-1372)
chain: MKRIRDDVYASGSQFRRPLGSSRGQLCGQSPVHGSGDTEEEEEGGSRRVSQKLTTNDALSYLREVKEMFQDQREKYDRFLEVMKDFKAQRTDTGGVIARVKELFKGHNNLIYGFNTFLPKGYEITLIEEDDALPKKTVEFEQAINFVNKIKMRFKHDEHVYKSFLEILNMYRKENKEIKEVYNEVSILFQGHLDLLEQFTRFLPASLPSHSAAQHSRSQAQQYSDRGSDPPLLHQMQVEKERRRERAVALRGDYSVERYDLNDDKTMVKIQREQRKRLDKENRARRGRDLDDREAGQDNLHHFPEKRKSSRRAEALEAYSGSASHSEKDNLKSMYKQAFVFCEKVKDRLCSQDDYQTFLKCLNIFSNGIIQRKDLQNLVSDLLGKFPDLMDEFNQFFERCESITDGFQRLAGVMSKKLFSSEEQLSRPMKVEEKESEHKPELEAVKETEQCKKEYMGKSIQELDLSDCECCTPSYRLLPADYPIPIASQRSELGAEVLNDHWVSVTSGSEDYSFKHMRRNQYEESLFRCEDDRFELDMLLESVSSAARSAESLLNIITEKKISFSGSFRIEDHFTALNLRCIERLYGDHGLDVIDILNKNPATALPVILTRLKQKQGEWKKCRDDFDKVWANVYAKNHYKSLDHRSFYFKQQDSKNLSAKSLLAEIKELKEKSQNDDDVLLSISAGYRQPINPNLEYEYLNRAIHEDMFKVVQFSCEELCSTKEQLSKVLRLWENFLEAVLGVPPRAKGTDLVEDVVINPKTLDVNHSTSPNGEAAVSSGGDTARLASRKLKSAANGDENSSSGTFKHGIGLLNKDSTGKENLEDVEIANRDGVACSAVKPQKEQETGNEAEKRFGKPIPMDISERAAISSISIPSGAENNHCVVGKEVLPGAHEIQAKPSDTLTDIHHDVDSIETVHSTQGGDVGNSIVLANGLRSDSSKGTRNSDDPEGPSRNEKEEGELSPNGDFEDNFGVYKDHGVKSTSKPENSAEAEVEADAEVENEDDADDVDSENASEASGTESGGDVCSQDEDREEENGEHDEIDGKAESEGEAEGMDPHLLEGESELLPQSERVLLSVRPLSKHVAAVLCDERTKDLQVFYGNDDFYVLFRLHQILYERILYAKRNCSGGELKSKNLKDTNAGDPYARFMRVLYGLLDGSAENTKFEDECRAIIGNQSYVLFTLDKLIYRLVKQLQAIVADEMDNKLLQLYEYEKSRKPGRVIDSVYYENVRVLVHEENIYRLECSSLPSRLSIQLMDNIIEKPEAYAVSMDPTFASYMQTELLSVSSGKKEEGHDIVLQRNLTGLYDLCKAMEGVEVVNGLECKMSCSSYKIAYVLDTEDYFHRKKKKKKTEQLWQRNKVRVERFHRFLSA

For the first experiment, the target named is SNL3 (SIN3-LIKE 3), full length, fused to the GAL4 binding domain (Arabidopsis thaliana) (UniProt O48686). As to the kind of experiment: two-hybrid; Matchmaker GAL4 two-hybrid system 3, yeast AH109; VAL1 constructs in pGADT7 (AD), SNL constructs in pGBKT7 (BD); growth on medium lacking Trp, Leu, His and Ade, 3-5 d at 30 °C.
For the molecule B1, the binding result is given as “binds”.
Consider B2, for which the binding result is reported as “no binding”.
Turning to B3, the binding result is given as “no binding”.
Same read-out and setting: the result for B4 reads “binds”.
With B5, the binding entry is reported as “no binding”.
In the case of B6, the binding entry is on record as “no binding”.

The target of the next experiment is T1, GST-VAL1-CW (aa 458–673) (Arabidopsis thaliana) (UniProt Q8W4L5).
T1 sequence: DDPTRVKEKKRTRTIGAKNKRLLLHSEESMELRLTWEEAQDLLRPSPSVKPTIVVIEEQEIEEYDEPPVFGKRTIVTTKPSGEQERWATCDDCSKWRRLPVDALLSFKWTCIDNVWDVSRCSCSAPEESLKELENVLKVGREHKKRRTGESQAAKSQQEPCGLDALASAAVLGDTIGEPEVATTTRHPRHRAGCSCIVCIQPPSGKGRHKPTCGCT
Nature of the experiment: pull-down; supernatants of E. coli lysates in PBS pH 7.5 mixed in roughly equal amounts, incubated with glutathione beads or Ni Singarose 6FF overnight at 4 °C, washed five times with PBS; GST fusion held, His fusion detected with anti-His antibody.
With “His-SNL5, full length (from UniProt Q9XIE1 1-1162)”, the binding result was “binds”.
On the same count and under the same terms, in the case of “His-SNL4, full length (from UniProt O04539 1-1326)” it was “binds”; in that of “His-SNL6, full length (from UniProt Q9XIK6 1-1173)”, “binds”.
With “His-SNL3, full length (from UniProt O48686 1-1330)”, the binding entry is given as “binds”.
The same measure, in the same setting: in the case of B7 it was “binds”.
Regarding B8, the binding result was “binds”.
